# Source: the supplement of paper PMC12819154, “High-throughput peptide-centric local stability assay extends protein–ligand identification to membrane proteins, tissues and bacteria” (Nature Structural & Molecular Biology, 2025)
# The chains behind the UniProt entries cited, without tags or fusion partners. Where a name states a change or a piece, a line headed by the entry shows the natural chain unless it says otherwise.
# UniProt Q13685: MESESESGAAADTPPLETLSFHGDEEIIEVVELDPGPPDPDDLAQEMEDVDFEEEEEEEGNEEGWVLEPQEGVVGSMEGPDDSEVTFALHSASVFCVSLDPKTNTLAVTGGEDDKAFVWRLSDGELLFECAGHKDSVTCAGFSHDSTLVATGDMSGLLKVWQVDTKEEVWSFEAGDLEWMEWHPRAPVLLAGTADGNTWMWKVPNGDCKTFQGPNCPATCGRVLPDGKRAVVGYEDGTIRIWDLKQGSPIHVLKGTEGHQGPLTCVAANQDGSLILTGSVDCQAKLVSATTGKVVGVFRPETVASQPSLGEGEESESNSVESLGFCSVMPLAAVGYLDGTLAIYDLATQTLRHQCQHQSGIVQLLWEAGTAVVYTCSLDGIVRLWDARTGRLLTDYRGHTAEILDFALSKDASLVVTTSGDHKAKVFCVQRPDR
# UniProt Q13162: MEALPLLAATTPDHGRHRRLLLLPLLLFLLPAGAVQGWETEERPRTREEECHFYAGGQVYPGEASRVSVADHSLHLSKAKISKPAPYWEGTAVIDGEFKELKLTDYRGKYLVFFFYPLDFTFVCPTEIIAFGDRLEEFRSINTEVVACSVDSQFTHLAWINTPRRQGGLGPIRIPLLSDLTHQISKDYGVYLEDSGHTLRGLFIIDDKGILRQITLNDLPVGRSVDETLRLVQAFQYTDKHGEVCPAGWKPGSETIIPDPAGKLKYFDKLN
# UniProt Q14139: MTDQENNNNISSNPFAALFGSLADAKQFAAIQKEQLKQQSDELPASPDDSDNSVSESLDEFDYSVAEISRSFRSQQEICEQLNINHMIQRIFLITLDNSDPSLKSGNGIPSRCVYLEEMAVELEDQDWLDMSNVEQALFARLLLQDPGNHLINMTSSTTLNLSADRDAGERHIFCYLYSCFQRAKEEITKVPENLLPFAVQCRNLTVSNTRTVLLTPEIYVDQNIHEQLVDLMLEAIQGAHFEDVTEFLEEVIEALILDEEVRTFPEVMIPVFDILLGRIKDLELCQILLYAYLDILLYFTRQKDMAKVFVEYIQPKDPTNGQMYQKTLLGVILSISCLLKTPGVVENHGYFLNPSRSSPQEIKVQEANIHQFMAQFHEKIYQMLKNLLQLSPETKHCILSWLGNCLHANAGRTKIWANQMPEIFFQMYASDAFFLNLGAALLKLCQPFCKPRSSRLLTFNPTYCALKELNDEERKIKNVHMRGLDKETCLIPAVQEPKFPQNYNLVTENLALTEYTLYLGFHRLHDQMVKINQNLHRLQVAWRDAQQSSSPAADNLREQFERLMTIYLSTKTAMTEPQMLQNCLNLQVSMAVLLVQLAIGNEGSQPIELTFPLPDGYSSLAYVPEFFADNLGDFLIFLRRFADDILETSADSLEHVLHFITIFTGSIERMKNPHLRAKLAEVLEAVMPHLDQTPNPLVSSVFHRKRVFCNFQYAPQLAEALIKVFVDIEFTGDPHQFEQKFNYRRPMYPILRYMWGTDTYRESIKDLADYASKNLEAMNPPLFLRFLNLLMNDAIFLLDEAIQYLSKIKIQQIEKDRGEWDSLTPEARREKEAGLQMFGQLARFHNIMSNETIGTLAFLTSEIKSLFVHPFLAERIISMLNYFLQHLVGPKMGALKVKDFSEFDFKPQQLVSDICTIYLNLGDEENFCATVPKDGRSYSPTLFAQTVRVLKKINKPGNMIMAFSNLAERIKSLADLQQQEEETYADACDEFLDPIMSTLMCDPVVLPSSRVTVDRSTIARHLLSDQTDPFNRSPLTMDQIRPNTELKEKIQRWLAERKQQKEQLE
# UniProt Q14814: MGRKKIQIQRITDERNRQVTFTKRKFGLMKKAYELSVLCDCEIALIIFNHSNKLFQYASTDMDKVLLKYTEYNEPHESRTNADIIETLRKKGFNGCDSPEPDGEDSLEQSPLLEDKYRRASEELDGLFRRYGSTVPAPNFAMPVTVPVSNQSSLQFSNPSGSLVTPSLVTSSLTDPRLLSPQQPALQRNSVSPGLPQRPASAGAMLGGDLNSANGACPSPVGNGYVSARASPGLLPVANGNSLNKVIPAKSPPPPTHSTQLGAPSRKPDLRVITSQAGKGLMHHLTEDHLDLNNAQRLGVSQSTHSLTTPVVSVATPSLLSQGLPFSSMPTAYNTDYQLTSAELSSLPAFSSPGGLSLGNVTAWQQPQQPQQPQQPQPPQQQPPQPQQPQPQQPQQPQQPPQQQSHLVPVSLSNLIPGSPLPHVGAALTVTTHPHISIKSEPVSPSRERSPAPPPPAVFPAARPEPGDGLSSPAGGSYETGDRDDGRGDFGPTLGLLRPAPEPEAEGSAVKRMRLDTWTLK
# UniProt Q13330: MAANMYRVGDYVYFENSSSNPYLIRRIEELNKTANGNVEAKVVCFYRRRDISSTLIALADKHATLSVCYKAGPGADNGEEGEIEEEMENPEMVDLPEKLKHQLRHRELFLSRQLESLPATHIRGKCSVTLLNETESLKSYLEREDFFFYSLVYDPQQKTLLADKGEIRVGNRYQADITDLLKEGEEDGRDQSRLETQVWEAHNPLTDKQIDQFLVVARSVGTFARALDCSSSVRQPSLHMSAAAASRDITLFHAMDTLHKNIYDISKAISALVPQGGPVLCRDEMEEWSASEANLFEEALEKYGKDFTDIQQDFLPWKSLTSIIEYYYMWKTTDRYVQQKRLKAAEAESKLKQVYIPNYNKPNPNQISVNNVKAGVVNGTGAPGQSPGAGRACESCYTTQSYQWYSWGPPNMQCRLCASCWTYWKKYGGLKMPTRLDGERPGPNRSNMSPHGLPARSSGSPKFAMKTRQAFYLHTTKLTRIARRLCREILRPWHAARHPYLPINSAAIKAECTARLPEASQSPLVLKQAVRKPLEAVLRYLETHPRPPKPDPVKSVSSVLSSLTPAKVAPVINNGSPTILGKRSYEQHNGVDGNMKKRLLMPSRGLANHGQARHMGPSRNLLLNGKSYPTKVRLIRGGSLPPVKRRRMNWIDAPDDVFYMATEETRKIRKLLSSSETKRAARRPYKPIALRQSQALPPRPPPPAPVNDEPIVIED
# UniProt Q13131: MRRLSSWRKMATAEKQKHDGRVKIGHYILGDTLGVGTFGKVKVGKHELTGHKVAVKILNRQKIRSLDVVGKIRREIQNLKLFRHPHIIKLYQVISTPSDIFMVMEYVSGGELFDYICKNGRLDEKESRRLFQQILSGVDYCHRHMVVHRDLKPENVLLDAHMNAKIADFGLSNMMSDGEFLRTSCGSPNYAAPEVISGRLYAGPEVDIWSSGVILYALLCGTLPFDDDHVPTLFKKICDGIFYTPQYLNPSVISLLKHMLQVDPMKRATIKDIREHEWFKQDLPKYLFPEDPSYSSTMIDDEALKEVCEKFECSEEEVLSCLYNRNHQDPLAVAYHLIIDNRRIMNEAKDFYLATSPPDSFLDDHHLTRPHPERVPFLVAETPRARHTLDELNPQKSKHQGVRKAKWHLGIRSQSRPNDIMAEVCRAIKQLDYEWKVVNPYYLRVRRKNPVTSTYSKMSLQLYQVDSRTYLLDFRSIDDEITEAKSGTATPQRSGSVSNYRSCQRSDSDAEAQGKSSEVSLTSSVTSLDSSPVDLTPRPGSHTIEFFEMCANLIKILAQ
# UniProt Q13951, whole entry: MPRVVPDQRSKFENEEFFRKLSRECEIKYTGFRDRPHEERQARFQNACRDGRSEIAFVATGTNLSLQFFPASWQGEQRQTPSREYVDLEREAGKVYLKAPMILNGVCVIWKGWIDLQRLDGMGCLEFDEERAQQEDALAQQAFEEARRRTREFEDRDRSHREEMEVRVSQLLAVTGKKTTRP
# UniProt Q13347, whole entry: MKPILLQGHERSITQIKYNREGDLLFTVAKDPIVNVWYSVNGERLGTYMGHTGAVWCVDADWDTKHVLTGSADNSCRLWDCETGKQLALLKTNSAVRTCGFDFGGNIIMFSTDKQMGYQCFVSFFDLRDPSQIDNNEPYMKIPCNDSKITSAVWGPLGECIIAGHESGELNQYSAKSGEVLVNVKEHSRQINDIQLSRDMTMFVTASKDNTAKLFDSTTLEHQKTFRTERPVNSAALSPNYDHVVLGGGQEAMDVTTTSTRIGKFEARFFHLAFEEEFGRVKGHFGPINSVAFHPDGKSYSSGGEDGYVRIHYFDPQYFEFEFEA
# UniProt Q14155: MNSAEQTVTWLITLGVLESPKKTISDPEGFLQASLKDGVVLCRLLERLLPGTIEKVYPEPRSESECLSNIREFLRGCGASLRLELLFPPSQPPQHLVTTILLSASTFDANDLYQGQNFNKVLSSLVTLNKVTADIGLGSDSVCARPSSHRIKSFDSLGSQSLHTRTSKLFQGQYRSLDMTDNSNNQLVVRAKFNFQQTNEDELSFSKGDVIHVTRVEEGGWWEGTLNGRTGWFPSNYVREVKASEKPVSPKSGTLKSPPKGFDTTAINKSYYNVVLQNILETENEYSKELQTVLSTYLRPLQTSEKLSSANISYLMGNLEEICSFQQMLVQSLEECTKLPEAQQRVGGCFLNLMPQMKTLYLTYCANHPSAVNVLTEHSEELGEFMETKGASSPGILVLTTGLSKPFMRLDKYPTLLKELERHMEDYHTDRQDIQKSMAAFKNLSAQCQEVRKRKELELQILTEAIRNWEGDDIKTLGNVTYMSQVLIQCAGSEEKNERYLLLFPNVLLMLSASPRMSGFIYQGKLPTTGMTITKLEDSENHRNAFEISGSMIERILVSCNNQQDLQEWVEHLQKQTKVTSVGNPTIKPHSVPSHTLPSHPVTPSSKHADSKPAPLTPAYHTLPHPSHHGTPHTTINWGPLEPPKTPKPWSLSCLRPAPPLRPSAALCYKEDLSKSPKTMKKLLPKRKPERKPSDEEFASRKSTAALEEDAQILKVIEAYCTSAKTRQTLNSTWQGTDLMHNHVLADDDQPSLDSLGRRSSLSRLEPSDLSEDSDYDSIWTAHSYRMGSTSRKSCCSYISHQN
# UniProt Q14807: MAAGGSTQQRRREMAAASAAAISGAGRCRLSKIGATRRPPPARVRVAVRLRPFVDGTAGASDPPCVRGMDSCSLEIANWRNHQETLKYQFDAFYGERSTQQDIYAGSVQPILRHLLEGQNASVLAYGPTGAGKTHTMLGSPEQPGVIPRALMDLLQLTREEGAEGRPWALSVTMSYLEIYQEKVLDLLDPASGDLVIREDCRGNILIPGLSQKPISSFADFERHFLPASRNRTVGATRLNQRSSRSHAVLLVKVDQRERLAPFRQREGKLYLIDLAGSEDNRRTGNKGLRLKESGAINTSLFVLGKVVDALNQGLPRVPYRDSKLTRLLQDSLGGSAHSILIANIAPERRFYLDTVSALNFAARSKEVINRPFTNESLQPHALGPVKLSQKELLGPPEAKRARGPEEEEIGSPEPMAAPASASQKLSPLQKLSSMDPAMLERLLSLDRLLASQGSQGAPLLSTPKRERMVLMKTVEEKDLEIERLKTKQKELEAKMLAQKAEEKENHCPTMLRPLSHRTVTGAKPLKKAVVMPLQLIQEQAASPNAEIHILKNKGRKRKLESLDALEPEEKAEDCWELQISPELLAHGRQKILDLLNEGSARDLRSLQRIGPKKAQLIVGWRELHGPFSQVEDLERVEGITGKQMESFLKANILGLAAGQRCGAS
# UniProt Q14241: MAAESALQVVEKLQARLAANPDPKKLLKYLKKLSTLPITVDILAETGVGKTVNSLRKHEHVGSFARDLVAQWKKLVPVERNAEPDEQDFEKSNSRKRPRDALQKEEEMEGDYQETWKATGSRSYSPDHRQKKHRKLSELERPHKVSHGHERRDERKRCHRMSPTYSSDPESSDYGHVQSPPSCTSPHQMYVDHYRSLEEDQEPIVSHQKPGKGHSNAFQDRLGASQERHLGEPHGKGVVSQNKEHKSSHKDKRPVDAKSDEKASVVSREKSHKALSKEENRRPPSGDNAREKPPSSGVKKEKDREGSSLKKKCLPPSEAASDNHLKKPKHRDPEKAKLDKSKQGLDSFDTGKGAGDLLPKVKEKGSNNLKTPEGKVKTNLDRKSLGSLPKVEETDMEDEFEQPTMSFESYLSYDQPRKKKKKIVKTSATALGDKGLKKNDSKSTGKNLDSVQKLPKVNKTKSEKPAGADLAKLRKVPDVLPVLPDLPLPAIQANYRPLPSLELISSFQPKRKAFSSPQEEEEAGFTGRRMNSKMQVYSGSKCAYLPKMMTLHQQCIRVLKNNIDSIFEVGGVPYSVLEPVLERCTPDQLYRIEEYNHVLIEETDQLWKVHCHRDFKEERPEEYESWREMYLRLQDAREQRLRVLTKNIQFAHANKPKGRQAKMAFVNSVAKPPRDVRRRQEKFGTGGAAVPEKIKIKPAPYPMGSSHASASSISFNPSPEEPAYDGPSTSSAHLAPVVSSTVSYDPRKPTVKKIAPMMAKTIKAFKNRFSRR
# Some of the results follow. Most entries show no effect beyond the scatter of the controls.
# Compound: Cc1nc(Nc2ncc(C(=O)Nc3c(C)cccc3Cl)s2)cc(N2CCN(CCO)CC2)n1 [dasatinib]
# Test: log2 fold change of tryptic peptide abundance, ligand vs vehicle (limited proteolysis) (log2 ratio); higher = more trypsin-susceptible (destabilized)
# Conditions: ligand concentration: 5 uM; sample: K562 cleared lysate
row,Target,log2 fold change
1,"AAMP (peptide sequence: AVVGYEDGTIR, peptide start residue: 230) (UniProt Q13685)",0.261
2,"KCNAB2 (peptide sequence: QTGSPGMIYSTR, peptide start residue: 17) (UniProt Q13303)",0.183
3,"WRN (peptide sequence: DNVAVMATGYGK, peptide start residue: 566) (UniProt Q14191)",0.541
4,"EIF2B1 (peptide sequence: VAQTGQDLK, peptide start residue: 259) (UniProt Q14232)",0.059
5,"UniProt Q14586 (peptide sequence: SYLTTHQR, peptide start residue: 645)",-0.681
6,"UniProt Q147X3 (peptide sequence: NGIGTNLVKK, peptide start residue: 296)",0.88
7,"MRPL49 (peptide sequence: MHNIPVYK, peptide start residue: 91) (UniProt Q13405)",0.428
8,"AUH (peptide sequence: EFLPQGPVAMR, peptide start residue: 277) (UniProt Q13825)",-0.322
9,"ESPL1 (peptide sequence: GSSSGLLSPQR, peptide start residue: 237) (UniProt Q14674)",0.658
10,"IKZF1 (peptide sequence: SGLIYLTNHIAPHAR, peptide start residue: 409) (UniProt Q13422)",0.108
11,"CUL7 (peptide sequence: SQSHPALER, peptide start residue: 1432) (UniProt Q14999)",0.441
12,"UniProt Q14197 (peptide sequence: SSGPGGQNVNK, peptide start residue: 84)",0.265
13,"ASAH1 (peptide sequence: ESLDVYELDAK, peptide start residue: 300) (UniProt Q13510)",-0.188
14,"PRDX4 (peptide sequence: HGEVCPAGWKPGSETIIPDPAGK, peptide start residue: 241) (UniProt Q13162)",-0.124
15,"UBE4A (peptide sequence: SPLTMDQIRPNTELK, peptide start residue: 1034) (UniProt Q14139)",-0.279
16,"UniProt Q15006 (peptide sequence: YASWAASQINR, peptide start residue: 256)",0.165
17,"MEF2D (peptide sequence: ASEELDGLFR, peptide start residue: 120) (UniProt Q14814)",-0.34
18,"MTA1 (peptide sequence: DITLFHAMDTLHK, peptide start residue: 248) (UniProt Q13330)",-0.778
19,"GPS1 (peptide sequence: RGHDDLGDHYLDCGDLSNALK, peptide start residue: 163) (UniProt Q13098)",-0.193

row,Target,log2 fold change
1,"UniProt Q13233 (peptide sequence: ATCMPAWKHEWLER, peptide start residue: 191)",-0.381
2,"UniProt Q13131 (peptide sequence: SDSDAEAQGK, peptide start residue: 506)",0.256
3,"CBFB (peptide sequence: EAGKVYLKAPMILNGVCVIWK, peptide start residue: 91) (UniProt Q13951)",0.453
4,"EIF3I (peptide sequence: LWDCETGK, peptide start residue: 78) (UniProt Q13347)",-0.13
5,"DGKZ (peptide sequence: TICHYIVEAGASLMK, peptide start residue: 872) (UniProt Q13574)",0.0902
6,"SPTAN1 (peptide sequence: SQLLGSAHEVQR, peptide start residue: 1226) (UniProt Q13813)",-0.366
7,"PDE3B (peptide sequence: LMETQQEEETEKK, peptide start residue: 616) (UniProt Q13370)",-0.421
8,"FKBP8 (peptide sequence: SCSLVLEHQPDNIK, peptide start residue: 294) (UniProt Q14318)",0.103
9,"MORC3 (peptide sequence: SLAYIERDVYRPK, peptide start residue: 281) (UniProt Q14149)",0.365
10,"ARHGEF7 (peptide sequence: NLSAQCQEVR, peptide start residue: 443) (UniProt Q14155)",-0.145
11,"KIF22 (peptide sequence: LYLIDLAGSEDNRR, peptide start residue: 270) (UniProt Q14807)",0.164
12,"MPP2 (peptide sequence: TLVLIGAQGVGRR, peptide start residue: 340) (UniProt Q14168)",-0.291
13,"UniProt Q14449 (peptide sequence: GVLPCKLK, peptide start residue: 579)",0.142
14,"UniProt Q14241 (peptide sequence: MAFVNSVAKPPR, peptide start residue: 689)",-0.236
15,"VGLL4 (peptide sequence: QQNRPSVITCASAGAR, peptide start residue: 158) (UniProt Q14135)",0.236
16,"HLTF (peptide sequence: AVLDLESER, peptide start residue: 572) (UniProt Q14527)",-0.707
17,"STX3 (peptide sequence: SQHSVLSR, peptide start residue: 118) (UniProt Q13277)",-0.394
18,"MYO9B (peptide sequence: PGQLERPTSLALDSR, peptide start residue: 1245) (UniProt Q13459)",0.465

# Reprinted at random: 2 entries already listed, in no set order.
row,Target,log2 fold change
1,"UniProt Q13233 (peptide sequence: ATCMPAWKHEWLER, peptide start residue: 191)",-0.381
7,"PDE3B (peptide sequence: LMETQQEEETEKK, peptide start residue: 616) (UniProt Q13370)",-0.421
